Experimental data reported in the supplement of paper PMC10849652.
Some of the results follow.

By UniProt entry, the sequences of proteins in these tests, tags left out. Where a name states a change or a piece, a line headed by the entry shows the natural chain unless it says otherwise.
UniProt P42898: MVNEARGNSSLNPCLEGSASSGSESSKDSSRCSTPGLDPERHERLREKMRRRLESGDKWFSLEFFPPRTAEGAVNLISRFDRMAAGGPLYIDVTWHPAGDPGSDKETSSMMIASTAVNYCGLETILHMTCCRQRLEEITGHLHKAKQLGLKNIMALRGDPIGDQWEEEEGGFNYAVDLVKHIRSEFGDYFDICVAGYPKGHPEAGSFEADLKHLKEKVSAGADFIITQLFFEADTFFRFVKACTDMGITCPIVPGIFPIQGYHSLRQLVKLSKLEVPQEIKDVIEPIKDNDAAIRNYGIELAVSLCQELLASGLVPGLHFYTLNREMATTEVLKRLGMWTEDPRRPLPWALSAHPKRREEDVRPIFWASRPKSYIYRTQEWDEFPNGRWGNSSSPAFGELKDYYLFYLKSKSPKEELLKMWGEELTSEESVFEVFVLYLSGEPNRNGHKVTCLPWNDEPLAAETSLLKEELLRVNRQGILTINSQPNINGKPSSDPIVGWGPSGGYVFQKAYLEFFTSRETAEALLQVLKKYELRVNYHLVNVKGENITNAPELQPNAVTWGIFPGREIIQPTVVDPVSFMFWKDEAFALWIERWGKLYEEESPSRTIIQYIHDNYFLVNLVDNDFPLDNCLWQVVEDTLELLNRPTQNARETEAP
UniProt Q96E11: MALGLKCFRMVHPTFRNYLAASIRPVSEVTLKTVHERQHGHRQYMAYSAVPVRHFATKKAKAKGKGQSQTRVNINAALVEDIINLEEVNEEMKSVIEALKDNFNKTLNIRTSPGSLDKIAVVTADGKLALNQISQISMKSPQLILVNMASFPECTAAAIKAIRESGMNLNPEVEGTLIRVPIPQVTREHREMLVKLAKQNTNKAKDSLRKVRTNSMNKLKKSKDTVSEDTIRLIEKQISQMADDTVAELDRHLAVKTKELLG
UniProt P13640: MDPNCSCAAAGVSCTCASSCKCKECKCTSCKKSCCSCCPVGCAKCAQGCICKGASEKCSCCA
UniProt Q13330: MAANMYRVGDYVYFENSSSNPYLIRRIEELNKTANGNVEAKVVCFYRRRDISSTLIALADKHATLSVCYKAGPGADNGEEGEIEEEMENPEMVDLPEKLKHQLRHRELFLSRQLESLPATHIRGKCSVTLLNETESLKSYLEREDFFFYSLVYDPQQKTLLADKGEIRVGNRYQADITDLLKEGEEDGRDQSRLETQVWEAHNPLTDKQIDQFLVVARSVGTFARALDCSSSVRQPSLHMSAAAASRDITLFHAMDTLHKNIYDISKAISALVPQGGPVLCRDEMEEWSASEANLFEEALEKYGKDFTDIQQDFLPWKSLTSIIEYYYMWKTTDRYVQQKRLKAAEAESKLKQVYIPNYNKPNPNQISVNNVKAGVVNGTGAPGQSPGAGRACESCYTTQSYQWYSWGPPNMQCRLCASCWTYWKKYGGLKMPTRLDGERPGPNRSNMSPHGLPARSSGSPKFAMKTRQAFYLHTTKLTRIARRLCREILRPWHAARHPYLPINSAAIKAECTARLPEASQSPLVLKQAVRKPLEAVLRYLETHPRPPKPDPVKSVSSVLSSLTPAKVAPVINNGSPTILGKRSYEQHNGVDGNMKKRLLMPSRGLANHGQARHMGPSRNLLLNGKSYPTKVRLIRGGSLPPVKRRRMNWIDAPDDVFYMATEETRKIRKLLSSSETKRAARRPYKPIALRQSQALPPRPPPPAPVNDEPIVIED
UniProt Q96S97: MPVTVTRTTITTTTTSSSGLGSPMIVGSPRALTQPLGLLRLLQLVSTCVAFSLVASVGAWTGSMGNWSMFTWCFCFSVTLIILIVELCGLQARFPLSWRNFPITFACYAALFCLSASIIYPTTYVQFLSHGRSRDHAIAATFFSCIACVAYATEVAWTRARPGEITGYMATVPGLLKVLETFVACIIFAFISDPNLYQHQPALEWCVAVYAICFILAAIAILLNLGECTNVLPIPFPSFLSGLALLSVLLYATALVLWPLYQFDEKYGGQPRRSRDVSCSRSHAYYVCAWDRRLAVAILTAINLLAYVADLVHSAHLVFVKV
UniProt Q92614: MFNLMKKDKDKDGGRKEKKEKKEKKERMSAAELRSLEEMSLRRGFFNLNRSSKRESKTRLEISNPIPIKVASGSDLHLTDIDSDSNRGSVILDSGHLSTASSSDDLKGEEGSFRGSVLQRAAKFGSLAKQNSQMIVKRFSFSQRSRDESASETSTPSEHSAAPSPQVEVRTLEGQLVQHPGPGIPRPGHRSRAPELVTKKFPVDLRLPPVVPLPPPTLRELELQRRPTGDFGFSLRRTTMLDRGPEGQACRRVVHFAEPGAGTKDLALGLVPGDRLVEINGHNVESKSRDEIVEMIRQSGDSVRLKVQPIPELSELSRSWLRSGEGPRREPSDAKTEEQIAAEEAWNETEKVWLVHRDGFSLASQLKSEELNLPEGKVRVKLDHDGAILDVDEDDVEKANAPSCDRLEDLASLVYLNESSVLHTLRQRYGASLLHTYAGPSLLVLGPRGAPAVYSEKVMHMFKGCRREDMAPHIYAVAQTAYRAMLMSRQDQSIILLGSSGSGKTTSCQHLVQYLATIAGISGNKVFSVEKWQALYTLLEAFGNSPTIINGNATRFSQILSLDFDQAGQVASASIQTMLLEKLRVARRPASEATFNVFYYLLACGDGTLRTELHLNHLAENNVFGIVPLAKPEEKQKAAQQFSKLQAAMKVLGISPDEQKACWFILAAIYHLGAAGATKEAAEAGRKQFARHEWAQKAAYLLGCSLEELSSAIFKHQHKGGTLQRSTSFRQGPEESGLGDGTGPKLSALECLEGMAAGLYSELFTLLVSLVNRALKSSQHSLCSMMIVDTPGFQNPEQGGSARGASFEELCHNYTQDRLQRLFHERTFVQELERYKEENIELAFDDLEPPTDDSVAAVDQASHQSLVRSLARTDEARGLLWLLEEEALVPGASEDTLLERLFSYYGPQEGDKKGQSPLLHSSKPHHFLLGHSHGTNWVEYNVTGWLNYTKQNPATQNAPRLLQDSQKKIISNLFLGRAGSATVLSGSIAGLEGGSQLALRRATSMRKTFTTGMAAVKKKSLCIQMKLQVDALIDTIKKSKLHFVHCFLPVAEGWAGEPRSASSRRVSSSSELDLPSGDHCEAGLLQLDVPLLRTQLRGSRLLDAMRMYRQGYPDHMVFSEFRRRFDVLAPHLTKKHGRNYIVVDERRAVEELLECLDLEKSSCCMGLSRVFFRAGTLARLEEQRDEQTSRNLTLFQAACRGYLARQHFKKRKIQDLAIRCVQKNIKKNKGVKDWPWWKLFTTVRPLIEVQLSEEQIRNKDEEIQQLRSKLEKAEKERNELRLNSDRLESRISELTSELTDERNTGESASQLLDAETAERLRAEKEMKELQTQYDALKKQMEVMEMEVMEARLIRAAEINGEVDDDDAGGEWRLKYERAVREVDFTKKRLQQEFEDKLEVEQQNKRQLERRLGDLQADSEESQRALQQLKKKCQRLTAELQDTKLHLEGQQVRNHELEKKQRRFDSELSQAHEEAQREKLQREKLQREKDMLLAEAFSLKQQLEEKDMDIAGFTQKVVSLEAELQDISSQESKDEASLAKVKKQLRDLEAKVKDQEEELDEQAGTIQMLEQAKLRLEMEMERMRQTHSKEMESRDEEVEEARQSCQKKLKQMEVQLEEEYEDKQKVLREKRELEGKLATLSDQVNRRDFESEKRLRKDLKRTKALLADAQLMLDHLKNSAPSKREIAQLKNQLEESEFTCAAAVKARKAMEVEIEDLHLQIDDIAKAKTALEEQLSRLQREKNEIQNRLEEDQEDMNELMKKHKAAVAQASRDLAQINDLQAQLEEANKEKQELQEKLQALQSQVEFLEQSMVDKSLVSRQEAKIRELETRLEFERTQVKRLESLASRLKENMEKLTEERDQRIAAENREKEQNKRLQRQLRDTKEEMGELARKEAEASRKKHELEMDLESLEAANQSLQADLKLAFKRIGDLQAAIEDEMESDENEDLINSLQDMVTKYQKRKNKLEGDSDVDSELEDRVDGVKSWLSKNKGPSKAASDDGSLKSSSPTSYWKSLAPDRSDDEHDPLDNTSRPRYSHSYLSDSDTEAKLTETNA
UniProt O75431: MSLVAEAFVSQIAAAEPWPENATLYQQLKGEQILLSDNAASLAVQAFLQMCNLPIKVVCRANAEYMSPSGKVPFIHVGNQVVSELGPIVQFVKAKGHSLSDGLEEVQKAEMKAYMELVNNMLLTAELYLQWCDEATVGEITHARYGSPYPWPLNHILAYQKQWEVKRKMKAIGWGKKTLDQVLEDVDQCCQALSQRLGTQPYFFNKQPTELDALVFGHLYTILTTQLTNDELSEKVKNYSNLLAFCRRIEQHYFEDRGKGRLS
UniProt P82909: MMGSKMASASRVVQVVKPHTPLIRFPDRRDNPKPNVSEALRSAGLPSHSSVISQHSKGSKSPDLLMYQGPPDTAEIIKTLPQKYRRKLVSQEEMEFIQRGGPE
UniProt P13995: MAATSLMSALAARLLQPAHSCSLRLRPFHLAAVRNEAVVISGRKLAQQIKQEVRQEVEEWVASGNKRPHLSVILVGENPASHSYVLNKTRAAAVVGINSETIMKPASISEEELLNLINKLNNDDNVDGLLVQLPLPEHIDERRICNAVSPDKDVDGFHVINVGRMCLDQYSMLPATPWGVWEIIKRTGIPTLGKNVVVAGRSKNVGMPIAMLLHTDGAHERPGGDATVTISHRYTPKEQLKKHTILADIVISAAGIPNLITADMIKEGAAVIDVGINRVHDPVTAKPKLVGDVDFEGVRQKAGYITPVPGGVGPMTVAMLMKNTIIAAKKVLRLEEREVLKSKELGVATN
UniProt Q96DR8: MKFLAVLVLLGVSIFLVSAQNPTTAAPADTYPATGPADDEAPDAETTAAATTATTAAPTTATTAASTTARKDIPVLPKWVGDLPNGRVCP
UniProt Q99707: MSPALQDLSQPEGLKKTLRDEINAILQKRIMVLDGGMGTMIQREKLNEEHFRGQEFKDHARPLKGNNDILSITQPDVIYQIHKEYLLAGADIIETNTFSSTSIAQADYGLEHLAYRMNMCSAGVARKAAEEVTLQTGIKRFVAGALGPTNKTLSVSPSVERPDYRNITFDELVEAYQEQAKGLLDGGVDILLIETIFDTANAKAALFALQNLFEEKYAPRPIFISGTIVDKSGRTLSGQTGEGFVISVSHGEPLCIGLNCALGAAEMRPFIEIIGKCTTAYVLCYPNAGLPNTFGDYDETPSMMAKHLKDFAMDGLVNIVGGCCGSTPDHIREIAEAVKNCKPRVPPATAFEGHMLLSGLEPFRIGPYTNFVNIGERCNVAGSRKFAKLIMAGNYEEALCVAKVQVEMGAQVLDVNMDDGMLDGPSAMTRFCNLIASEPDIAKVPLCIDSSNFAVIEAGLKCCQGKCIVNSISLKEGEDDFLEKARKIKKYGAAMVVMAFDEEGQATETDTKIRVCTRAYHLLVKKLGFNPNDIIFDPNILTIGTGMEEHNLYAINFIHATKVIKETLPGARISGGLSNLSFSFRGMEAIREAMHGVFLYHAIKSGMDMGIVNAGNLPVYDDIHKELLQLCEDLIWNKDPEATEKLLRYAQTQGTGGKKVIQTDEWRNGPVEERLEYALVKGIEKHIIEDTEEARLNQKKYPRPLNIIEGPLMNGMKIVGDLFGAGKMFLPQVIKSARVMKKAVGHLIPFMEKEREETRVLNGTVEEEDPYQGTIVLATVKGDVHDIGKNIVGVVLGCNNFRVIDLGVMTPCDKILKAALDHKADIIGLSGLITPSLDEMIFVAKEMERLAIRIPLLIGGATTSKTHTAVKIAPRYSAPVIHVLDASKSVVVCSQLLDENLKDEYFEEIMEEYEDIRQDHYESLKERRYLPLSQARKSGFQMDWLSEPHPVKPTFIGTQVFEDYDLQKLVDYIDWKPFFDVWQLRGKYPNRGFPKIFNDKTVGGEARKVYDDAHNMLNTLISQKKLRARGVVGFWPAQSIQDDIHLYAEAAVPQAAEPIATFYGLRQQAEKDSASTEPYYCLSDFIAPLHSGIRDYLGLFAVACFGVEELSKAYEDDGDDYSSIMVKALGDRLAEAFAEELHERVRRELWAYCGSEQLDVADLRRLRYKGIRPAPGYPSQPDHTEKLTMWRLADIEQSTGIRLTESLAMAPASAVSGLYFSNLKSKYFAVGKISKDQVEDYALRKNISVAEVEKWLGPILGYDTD
UniProt Q15390: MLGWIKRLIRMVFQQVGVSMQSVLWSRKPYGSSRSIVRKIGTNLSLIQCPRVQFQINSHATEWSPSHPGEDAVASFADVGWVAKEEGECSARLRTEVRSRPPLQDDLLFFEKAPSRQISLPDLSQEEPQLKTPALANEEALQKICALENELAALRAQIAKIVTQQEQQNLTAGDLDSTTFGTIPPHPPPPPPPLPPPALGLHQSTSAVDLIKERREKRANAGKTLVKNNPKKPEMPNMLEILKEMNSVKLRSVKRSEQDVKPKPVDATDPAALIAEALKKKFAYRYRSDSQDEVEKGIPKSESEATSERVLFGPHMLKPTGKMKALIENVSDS

How the values were obtained:
Assay in all cases: log2 fold change, soluble protein after heating vs DMSO (PISA); higher = thermal stabilisation; K562 cells, 10 uM, 30 min; active = over 0.2 and 3.5 SD of the protein, either way, in both replicates (recomputed)
saracatinib = compound: CN1CCN(CCOc2cc(OC3CCOCC3)c3c(Nc4c(Cl)ccc5c4OCO5)ncnc3c2)CC1 [saracatinib]
Summary of the method: (§1)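 For each measurement, 10 μM compound was applied for 30 min to K562 cells at 2×10^6 cells/mL. Aliquots were heated for 3 min across 48°C-58°C, pooled, and extracted in PBS with 0.5% NP-40 at 4°C; the supernatant after 21,000xg for 90 min was soluble protein. This was quantified by TMTpro 16plex LC-MS/MS with channel sums equalised, and thermal stability was reported relative to control samples from duplicates, on a log2 fold-change scale.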

sotrastaurin = compound: CN1CCN(c2nc(C3=C(c4c[nH]c5ccccc45)C(=O)NC3=O)c3ccccc3n2)CC1 [sotrastaurin]
Summary of the method: as §1

alvocidib = compound: CN1CC[C@H](c2c(O)cc(O)c3c(=O)cc(-c4ccccc4Cl)oc23)[C@H](O)C1 [alvocidib]
Summary of the method: as §1

Tubastatin A = compound: CN1CCc2c(c3ccccc3n2Cc2ccc(C(=O)NO)cc2)C1 [Tubastatin A]
Summary of the method: as §1

[1] = compound: CNC(=O)C1=CC=CC=C1NC2=NC(=NC=C2Cl)NC3=C(C=C(C=C3)N4CCOCC4)OC
Summary of the method: as §1

defactinib = compound: CNC(=O)c1ccc(Nc2ncc(C(F)(F)F)c(NCc3nccnc3N(C)S(C)(=O)=O)n2)cc1 [defactinib]
Summary of the method: as §1

rucaparib = compound: CNCc1ccc(-c2[nH]c3cc(F)cc4c3c2CCNC4=O)cc1 [rucaparib]
Summary of the method: as §1

[2] = compound: CNc1nc(-c2ccc3c(N)n[nH]c3c2)cc(N2C[C@@H](C(=O)NC3CCCCC3)CC[C@H]2C)n1
Summary of the method: as §1

encorafenib = compound: COC(=O)N[C@@H](C)CNc1nccc(-c2cn(C(C)C)nc2-c2cc(Cl)cc(NS(C)(=O)=O)c2F)n1 [encorafenib]
Summary of the method: as §1

[3] = compound: COC(=O)[C@H](CCSC)NC(=O)C1=C(C=C(C=C1)NC[C@H](CS)N)C2=CC=CC=C2
Summary of the method: as §1

[4] = compound: COC1=CC=C(C=C1)CN2C=CC3=C2C=C(C=C3)C(=O)NO
Summary of the method: as §1

filanesib = compound: CON(C)C(=O)N1N=C(c2cc(F)ccc2F)S[C@@]1(CCCN)c1ccccc1 [filanesib]
Summary of the method: as §1

zotarolimus = compound: CO[C@H]1C[C@@H]2CC[C@@H](C)[C@@](O)(O2)C(=O)C(=O)N2CCCC[C@H]2C(=O)O[C@H]([C@H](C)C[C@@H]2CC[C@H](n3cnnn3)[C@H](OC)C2)CC(=O)[C@H](C)/C=C(\C)[C@@H](O)[C@@H](OC)C(=O)[C@H](C)C[C@H](C)/C=C/C=C/C=C/1C [zotarolimus]
Summary of the method: as §1

idasanutlin = compound: COc1cc(C(=O)O)ccc1NC(=O)[C@@H]1N[C@@H](CC(C)(C)C)[C@](C#N)(c2ccc(Cl)cc2F)[C@H]1c1cccc(Cl)c1F [idasanutlin]
Summary of the method: as §1

alisertib = compound: COc1cc(Nc2ncc3c(n2)-c2ccc(Cl)cc2C(c2c(F)cccc2OC)=NC3)ccc1C(=O)O [alisertib]
Summary of the method: as §1

[5] = compound: COc1cc2nc(-c3cc(F)ccc3O)nc(N[C@@H]3CNC[C@H]3C(C)(C)O)c2cc1OC
Summary of the method: as §1

gefitinib = compound: COc1cc2ncnc(Nc3ccc(F)c(Cl)c3)c2cc1OCCCN1CCOCC1 [gefitinib]
Summary of the method: as §1

[6] = compound: COc1cccc2cc(-c3nc([C@H]4CC[C@H](C(=O)O)CC4)n4ncnc(N)c34)[nH]c12
Summary of the method: as §1

lapatinib = compound: CS(=O)(=O)CCNCc1ccc(-c2ccc3ncnc(Nc4ccc(OCc5cccc(F)c5)c(Cl)c4)c3c2)o1 [lapatinib]
Summary of the method: as §1

pictilisib = compound: CS(=O)(=O)N1CCN(Cc2cc3nc(-c4cccc5[nH]ncc45)nc(N4CCOCC4)c3s2)CC1 [pictilisib]
Summary of the method: as §1

Measured: log2 fold change

MRPS30 (UniProt Q9NP92)
inactive: saracatinib -0.162 | sotrastaurin -0.012 | alvocidib 0.102 | Tubastatin A 0.011 | [1] -0.024 | defactinib 0.058 | rucaparib 0.09 | [2] 0.157 | encorafenib 0.025 | [3] -0.028 | [4] -0.057 | filanesib 0.144 | zotarolimus 0.041 | idasanutlin -0.214 | alisertib -0.117 | [5] -0.019 | gefitinib -0.184 | [6] -0.053 | lapatinib 0.146 | pictilisib -0.108

MTHFR isoform 2 (UniProt P42898)
inactive: saracatinib -0.007 | sotrastaurin 0.082 | alvocidib -0.046 | Tubastatin A -0.032 | [1] -0.014 | defactinib -0.012 | rucaparib 0.034 | [2] 0.058 | encorafenib -0.027 | [3] -0.089 | [4] -0.174 | filanesib -0.106 | zotarolimus 0.008 | idasanutlin -0.111 | alisertib -0.057 | [5] 0.053 | gefitinib 0.012 | [6] 0.047 | lapatinib -0.021 | pictilisib 0.012

MRRF (UniProt Q96E11)
inactive: saracatinib 0.025 | sotrastaurin -0.015 | alvocidib -0.031 | Tubastatin A 0.019 | [1] 0.033 | defactinib -0.02 | rucaparib -0.069 | [2] 0 | encorafenib 0.03 | [3] -0.001 | [4] -0.016 | filanesib 0.021 | zotarolimus 0.026 | idasanutlin -0.053 | alisertib -0.017 | [5] 0.066 | gefitinib 0.042 | [6] -0.001 | lapatinib -0.007 | pictilisib -0.004

MT1G (UniProt P13640)
inactive: saracatinib 0.103 | sotrastaurin -0.018 | alvocidib 0.004 | Tubastatin A -0.092 | [1] -0.051 | defactinib -0.014 | rucaparib 0.04 | [2] -0.053 | encorafenib -0.033 | [3] 0.125 | [4] 0.333 | filanesib 0.085 | zotarolimus -0.05 | idasanutlin 0.148 | alisertib -0.011 | [5] -0.059 | gefitinib -0.055 | [6] 0.103 | lapatinib 0.071 | pictilisib 0.089

MTA1 (UniProt Q13330)
inactive: saracatinib -0.019 | sotrastaurin -0.161 | alvocidib -0.199 | Tubastatin A -0.029 | [1] -0.029 | defactinib -0.181 | rucaparib 0.059 | [2] -0.043 | encorafenib 0.06 | [3] -0.019 | [4] 0.087 | filanesib 0.042 | zotarolimus 0.083 | idasanutlin 0.038 | alisertib -0.065 | [5] -0.048 | gefitinib -0.015 | [6] -0.117 | lapatinib 0.065 | pictilisib 0.015

MYADM (UniProt Q96S97)
inactive: saracatinib -0.011 | sotrastaurin -0.143 | alvocidib 0 | Tubastatin A 0.064 | [1] -0.028 | defactinib 0.004 | rucaparib -0.002 | [2] -0.054 | encorafenib 0.025 | [3] -0.064 | [4] 0.082 | filanesib -0.113 | zotarolimus -0.012 | idasanutlin -0.002 | alisertib -0.011 | [5] -0.067 | gefitinib -0.021 | [6] -0.128 | lapatinib 0.082 | pictilisib -0.132

MYO18A (UniProt Q92614)
inactive: saracatinib -0.011 | sotrastaurin -0.018 | alvocidib 0.062 | Tubastatin A -0.013 | [1] -0.11 | defactinib -0.018 | rucaparib 0.115 | [2] 0.072 | encorafenib 0.015 | [3] -0.042 | [4] -0.067 | filanesib 0.1 | zotarolimus 0 | idasanutlin 0.06 | alisertib -0.062 | [5] 0.044 | gefitinib -0.002 | [6] -0.006 | lapatinib 0.007 | pictilisib -0.035

MRS2 (UniProt Q9HD23)
inactive: saracatinib 0.035 | sotrastaurin 0.037 | alvocidib 0.05 | Tubastatin A -0.026 | [1] -0.044 | defactinib -0.02 | rucaparib -0.01 | [2] 0 | encorafenib -0.001 | [3] -0.015 | [4] -0.014 | filanesib -0.106 | zotarolimus -0.045 | idasanutlin 0.01 | alisertib -0.06 | [5] -0.075 | gefitinib -0.006 | [6] 0.041 | lapatinib 0.048 | pictilisib -0.002

MRTFA (UniProt Q969V6)
inactive: saracatinib 0.081 | sotrastaurin -0.048 | alvocidib -0.115 | Tubastatin A 0.038 | [1] -0.013 | defactinib 0.186 | rucaparib -0.134 | [2] -0.058 | encorafenib -0.046 | [3] -0.017 | [4] 0.149 | filanesib -0.084 | zotarolimus 0.012 | idasanutlin 0.165 | alisertib 0.025 | [5] 0.064 | gefitinib -0.004 | [6] 0.015 | lapatinib -0.006 | pictilisib 0.06

MTX2 (UniProt O75431)
inactive: saracatinib -0.005 | sotrastaurin 0.045 | alvocidib -0.037 | Tubastatin A 0.001 | [1] 0.065 | defactinib -0.018 | rucaparib 0.071 | [2] 0.004 | encorafenib -0.005 | [3] 0.003 | [4] -0.016 | filanesib -0.05 | zotarolimus 0.062 | idasanutlin -0.007 | alisertib -0.009 | [5] 0.118 | gefitinib 0.038 | [6] 0.058 | lapatinib -0.002 | pictilisib 0.106

MRPS36 (UniProt P82909)
inactive: saracatinib -0.083 | sotrastaurin 0.024 | alvocidib 0.016 | Tubastatin A -0.007 | [1] -0.026 | defactinib 0.019 | rucaparib 0.01 | [2] -0.026 | encorafenib -0.102 | [3] 0.019 | [4] -0.012 | filanesib -0.024 | zotarolimus -0.021 | idasanutlin 0.037 | alisertib -0.137 | [5] -0.002 | gefitinib -0.012 | [6] 0.026 | lapatinib -0.024 | pictilisib -0.019

MTREX (UniProt P42285)
inactive: saracatinib -0.022 | sotrastaurin -0.026 | alvocidib -0.025 | Tubastatin A 0 | [1] 0.015 | defactinib -0.004 | rucaparib 0 | [2] 0.043 | encorafenib -0.016 | [3] 0.008 | [4] 0.014 | filanesib -0.048 | zotarolimus -0.003 | idasanutlin -0.089 | alisertib -0.045 | [5] 0.073 | gefitinib -0.011 | [6] 0.022 | lapatinib 0 | pictilisib -0.005

MTHFD2 (UniProt P13995)
inactive: saracatinib 0.007 | sotrastaurin -0.009 | alvocidib 0.029 | Tubastatin A -0.043 | [1] 0.047 | defactinib 0.005 | rucaparib -0.052 | [2] -0.026 | encorafenib 0 | [3] 0.034 | [4] 0.001 | filanesib -0.106 | zotarolimus -0.036 | idasanutlin -0.031 | alisertib -0.064 | [5] -0.014 | gefitinib 0.005 | [6] 0.023 | lapatinib -0.02 | pictilisib 0.007

MUCL1 (UniProt Q96DR8)
inactive: saracatinib -0.042 | sotrastaurin -0.273 | alvocidib -0.327 | Tubastatin A 0.183 | [1] 0.109 | defactinib 0.001 | rucaparib 0.019 | [2] 0.415 | encorafenib -0.226 | [3] 0.256 | [4] 0.257 | filanesib -0.036 | zotarolimus -0.257 | idasanutlin 0.102 | alisertib 0.049 | [5] -0.058 | gefitinib 0.236 | [6] 0.108 | lapatinib -0.103 | pictilisib 0.264

MTR (UniProt Q99707)
inactive: saracatinib -0.109 | sotrastaurin -0.042 | alvocidib 0.1 | Tubastatin A 0.096 | [1] 0.01 | defactinib 0.033 | rucaparib 0.268 | [2] 0.059 | encorafenib 0.099 | [3] -0.051 | [4] -0.012 | filanesib 0.129 | zotarolimus 0.097 | idasanutlin 0.042 | alisertib -0.036 | [5] -0.037 | gefitinib 0.077 | [6] -0.045 | lapatinib -0.006 | pictilisib -0.043

MTFR1 (UniProt Q15390)
inactive: saracatinib -0.006 | sotrastaurin -0.002 | alvocidib -0.085 | Tubastatin A 0.04 | [1] -0.019 | defactinib -0.078 | rucaparib -0.017 | [2] -0.037 | encorafenib -0.011 | [3] 0.061 | [4] -0.027 | filanesib -0.09 | zotarolimus -0.022 | idasanutlin -0.013 | alisertib -0.024 | [5] -0.042 | gefitinib 0.069 | [6] 0.08 | lapatinib -0.026 | pictilisib -0.032

Looked up one by one from above (2):
MTREX (UniProt P42285)
inactive: saracatinib -0.022 | sotrastaurin -0.026 | alvocidib -0.025 | Tubastatin A 0 | [1] 0.015 | defactinib -0.004 | rucaparib 0 | [2] 0.043 | encorafenib -0.016 | [3] 0.008 | [4] 0.014 | filanesib -0.048 | zotarolimus -0.003 | idasanutlin -0.089 | alisertib -0.045 | [5] 0.073 | gefitinib -0.011 | [6] 0.022 | lapatinib 0 | pictilisib -0.005

MTR (UniProt Q99707)
inactive: saracatinib -0.109 | sotrastaurin -0.042 | alvocidib 0.1 | Tubastatin A 0.096 | [1] 0.01 | defactinib 0.033 | rucaparib 0.268 | [2] 0.059 | encorafenib 0.099 | [3] -0.051 | [4] -0.012 | filanesib 0.129 | zotarolimus 0.097 | idasanutlin 0.042 | alisertib -0.036 | [5] -0.037 | gefitinib 0.077 | [6] -0.045 | lapatinib -0.006 | pictilisib -0.043
